Paper PMC13503848
These are yes or no findings as the source states them, for the method shown. Binding seen in cells or lysates may run through a third protein. Binding calls can cover weak binding; strength is not graded here.

By UniProt entry, the sequences of proteins in these tests, tags left out. Where a name states a change or a piece, a line headed by the entry shows the natural chain unless it says otherwise. Residues count along the entry.
UniProt Q03391, residues 28-1323: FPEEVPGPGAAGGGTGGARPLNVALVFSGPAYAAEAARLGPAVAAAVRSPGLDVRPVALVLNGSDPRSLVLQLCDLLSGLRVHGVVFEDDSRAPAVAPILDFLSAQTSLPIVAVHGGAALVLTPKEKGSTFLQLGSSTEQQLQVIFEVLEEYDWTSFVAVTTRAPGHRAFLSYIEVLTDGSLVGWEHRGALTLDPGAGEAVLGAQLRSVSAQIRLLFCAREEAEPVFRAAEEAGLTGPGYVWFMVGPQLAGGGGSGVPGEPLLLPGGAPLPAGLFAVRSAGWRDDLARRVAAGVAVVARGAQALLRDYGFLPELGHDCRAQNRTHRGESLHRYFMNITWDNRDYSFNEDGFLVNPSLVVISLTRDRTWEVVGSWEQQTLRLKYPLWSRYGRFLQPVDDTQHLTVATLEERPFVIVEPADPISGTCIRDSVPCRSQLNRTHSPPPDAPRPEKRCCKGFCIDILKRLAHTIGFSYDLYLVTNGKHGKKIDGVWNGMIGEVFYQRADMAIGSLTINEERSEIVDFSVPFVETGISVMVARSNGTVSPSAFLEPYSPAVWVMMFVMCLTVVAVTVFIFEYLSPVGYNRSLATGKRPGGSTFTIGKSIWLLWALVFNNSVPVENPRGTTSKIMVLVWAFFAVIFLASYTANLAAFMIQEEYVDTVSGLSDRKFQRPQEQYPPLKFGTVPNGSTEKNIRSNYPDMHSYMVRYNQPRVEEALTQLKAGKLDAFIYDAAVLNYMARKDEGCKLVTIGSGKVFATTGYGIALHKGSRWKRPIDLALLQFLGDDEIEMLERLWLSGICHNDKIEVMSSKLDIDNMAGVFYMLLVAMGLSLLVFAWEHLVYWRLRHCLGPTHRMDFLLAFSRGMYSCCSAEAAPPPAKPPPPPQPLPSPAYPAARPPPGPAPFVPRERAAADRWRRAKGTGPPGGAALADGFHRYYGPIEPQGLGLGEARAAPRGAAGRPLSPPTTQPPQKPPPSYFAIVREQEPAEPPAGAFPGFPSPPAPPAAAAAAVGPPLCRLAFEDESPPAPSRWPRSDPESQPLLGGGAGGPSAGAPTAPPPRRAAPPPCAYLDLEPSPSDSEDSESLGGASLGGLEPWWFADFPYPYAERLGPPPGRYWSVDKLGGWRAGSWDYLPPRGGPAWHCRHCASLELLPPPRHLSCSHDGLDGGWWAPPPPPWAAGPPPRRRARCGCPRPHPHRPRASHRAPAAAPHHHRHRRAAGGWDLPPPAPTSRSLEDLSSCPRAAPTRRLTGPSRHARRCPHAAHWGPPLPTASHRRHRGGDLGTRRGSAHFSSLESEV
UniProt Q8VCQ8: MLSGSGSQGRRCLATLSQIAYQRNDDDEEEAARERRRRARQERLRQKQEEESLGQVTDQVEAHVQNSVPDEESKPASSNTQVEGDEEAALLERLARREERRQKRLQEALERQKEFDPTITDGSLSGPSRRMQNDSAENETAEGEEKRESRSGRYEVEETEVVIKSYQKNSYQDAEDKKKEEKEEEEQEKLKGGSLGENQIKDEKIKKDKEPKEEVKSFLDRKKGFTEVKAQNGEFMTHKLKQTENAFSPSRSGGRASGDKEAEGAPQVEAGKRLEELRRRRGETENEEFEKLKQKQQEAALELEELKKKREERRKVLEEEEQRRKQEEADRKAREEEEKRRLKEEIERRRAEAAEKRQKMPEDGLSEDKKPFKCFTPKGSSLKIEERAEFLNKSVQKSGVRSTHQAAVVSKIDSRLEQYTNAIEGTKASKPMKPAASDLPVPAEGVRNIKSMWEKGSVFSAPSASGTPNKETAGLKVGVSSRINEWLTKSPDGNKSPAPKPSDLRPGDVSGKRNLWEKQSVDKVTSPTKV

Biological target: GluN2D (NMDA receptor subunit, encoded by Grin2d), expressed as Grin2d-3XFlag (UniProt Q03391)
Experiment: co-IP; RIPA lysate of cultured mouse brain SMCs transduced with Grin2d-3XFlag lentivirus; anti-GluN2D or IgG control antibodies on Protein G Magnetic Beads; eluates analysed by western blot

binding: binds
Substance: caldesmon (encoded by Cald1) (from UniProt Q8VCQ8)
